Results from patent US11065304B2 (MEDERIS DIABETES, LLC, priority 2012, dated 2021).

Assay: general procedure: Fmoc solid-phase peptide synthesis; HMP amide resin; DIC/HOBt
Conditions: whole synthesis, analytical hplc (CH3CN in 0.1% TFA)/mass spectrometry, scale 2 mmole

Substance: His1-Aib2-Gln3-Gly4-Thr5-Phe6-Thr7-Ser8-Asp9-Tyr10-Ser11-Lys12-Tyr13-Leu14-Asp15-Glu*16-Gln17 Ala18-Ala19-Lys*20-Glu21-Phe22-Ile23-Lys(N-omega(1-tetradecyl beta-D-melibiouronyl))24-Trp25-Leu26-Leu27-Gln28-Thr29-NH2
- final HPLC purity: 98.7%
